The experiment is described as follows: qHTS Assay for Lipid Storage Modulators in Drosophila S3 Cells.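 As to cell number change: cells counted by Cell Tracker Red CMTPX staining in the red channel.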 The following applies: BODIPY lipid droplet fluorescence, 18-24 h; for cell number change: measured here: cell count max response, cells fed with added oleic acid. Summed up: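 Drosophila S3 cells got compounds at several concentrations plus oleic acid (400 uM solution). Laser-scanning cytometry with 488 nm excitation read lipid droplets at 500-530 nm and cells at 575-640 nm. Percent activity was relative to 20 uM Triacsin C.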
A general note: Quantitative high-throughput screening tests each substance at several concentrations.

Setting [1] is: measured here: cell number channel AC50, cells fed with added oleic acid.
[2] abbreviates: measured here: lipid fluorescence (Fed channel) AC50, cells fed with added oleic acid.

The other results are listed elsewhere or left out. These are further read-outs of the screen, such as a control signal, another cell line or another target. No call is given for them. Most of these compounds were active or inconclusive in the main read-out, so they are no random draw. Words in brackets tell the shape of the fitted curve; partial curves, single points and poor fits give uncertain potencies.

In general, AC50 refers to the concentration giving half of the maximal activity seen. Read a low AC50 as activity at low concentration. For `CC(=O)c1cccc(N=Nc2c(-c3ccccc3)[nH]n(-c3ccccc3)c2=O)c1`, the cell number change is -56.8%. Moreover, the half-maximal activity concentration (AC50) under setting [1] is 4.61 µM [falling, full curve]. Moreover, under setting [2], the AC50 is 4.61 µM [falling, single point].
Consider `CC(C)CC(=O)N(Cc1ccc(F)cc1)C1CCS(=O)(=O)C1` (stereo not given), for which the cell number change is -55.7%. Further, the concentration at half-maximal activity (AC50) under setting [1] was 32.6 µM [falling, partial curve]. Moreover, the AC50 under setting [2] is 20.6 µM [falling, single point].
Turning to `O=C(COc1ccc(CO)cc1Cl)Nc1ccc(F)cc1`, under setting [1], the AC50 is 0.58 µM [falling, single point].
`CNC(=S)Nc1ccc(C23CC4CC(CC(C4)C2)C3)cc1`: the cell number change is -38.7%. Moreover, the half-maximal activity concentration (AC50) under setting [1] is 14.6 µM [falling, partial curve, poor fit]. In addition, the half-maximal activity concentration (AC50) under setting [2] was 11.6 µM [falling, partial curve].
Take `O=C(O)c1ccc(-c2nc3ccccc3s2)o1`: the cell number change is 7.51%. In addition, the half-maximal activity concentration (AC50) under setting [2] was 18.4 µM [rising, single point].
Regarding `CC1N(C)c2cc(NC(=O)c3ccco3)ccc2C1(C)C` (stereo not given), the cell number change is -84.9%. In addition, under setting [1], the half-maximal activity concentration (AC50) is 29.1 µM [falling, single point]. In addition, under setting [2], the concentration at half-maximal activity (AC50) was 32.6 µM [falling, partial curve].
Turning to `Cc1cc(C(=O)OCC(=O)N(C)c2c(N)n(Cc3ccccc3)c(=O)[nH]c2=O)c(C)n1-c1ccccc1`, the cell number change is -6.7%. The concentration at half-maximal activity (AC50) under setting [1] is 0.651 µM [falling, full curve]. Moreover, the AC50 under setting [2] was 0.651 µM [falling, full curve].
Take `O=C(CSc1ccc2nnc(-c3ccccn3)n2n1)NCC1CCCO1` (stereo not given): the cell number change was determined as 30.6%. Also, under setting [1], the half-maximal activity concentration (AC50) is 0.164 µM [rising, full curve]. Further, the AC50 under setting [2] is 29.1 µM [rising, single point].
Take `Cc1cccc(N(CC(=O)N2CCCCCC2)S(C)(=O)=O)c1C`: the cell number change is -8.07%. For the same compound, the AC50 under setting [2] was 0.92 µM [falling, full curve, poor fit].
With `COc1ccc(Cn2c(C3CC3)nc3ccc(NC(=O)c4ccco4)cc3c2=O)cc1`, the cell number change is -1.58%. The AC50 under setting [2] is 0.517 µM [rising, full curve, poor fit].
Take `O=C(N/N=C\c1ccco1)c1cncc(Br)c1`: the cell number change came out at 3.62%.
Take `CC(NC(=O)CN(C)Cc1cccc(Cl)c1)c1ccccc1` (stereo not given): the cell number change is -15.4%.
For `CCCOc1ccc(Oc2ccc(S(=O)(=O)N3CCN(C)CC3)cn2)cc1`, the cell number change worked out at 40.3%. The AC50 under setting [1] is 5.17 µM [rising, partial curve]. In addition, the concentration at half-maximal activity (AC50) under setting [2] is 4.11 µM [rising, single point].
In the case of `O=C(Nc1ccc2c(c1)OCO2)c1ccncc1`, the AC50 under setting [2] is 14.6 µM [rising, partial curve].
`OC(c1cc(-c2ccc(Cl)cc2)nc2ccccc12)C1CCCCN1` (stereo not given): the cell number change is -45.5%. The AC50 under setting [1] is 23.1 µM [falling, single point]. Further, the AC50 under setting [2] is 29.1 µM [falling, single point].
As to `O=c1c2ccccc2c(C=Nc2ccc(S(=O)(=O)Nc3ncccn3)cc2)c(O)n1-c1cccc(Cl)c1`, the cell number change was found to be 109%. Further, under setting [1], the AC50 was 29.1 µM [rising, single point].
Regarding `CCN(CC)c1ccc(N=Nc2nn(C)c(C)c2[N+](=O)[O-])cc1`, the cell number change is -12.3%.
`O=C1/C(=C\c2ccc([N+](=O)[O-])cc2)CCc2ccccc21`: the cell number change was 5.46%. The concentration at half-maximal activity (AC50) under setting [2] was 0.291 µM [falling, full curve, poor fit].
As to `Cc1ccc(C(=O)Nc2ccc(N3CCN(C(=O)c4cccs4)CC3)cc2)c(Cl)c1`, the cell number change is 31.1%. The AC50 under setting [1] is 0.164 µM [rising, partial curve, poor fit]. The concentration at half-maximal activity (AC50) under setting [2] is 0.58 µM [falling, single point].
For `Cc1cc(C)n(-c2ccc(C(=O)NCc3cccs3)cc2)n1`, the cell number change is -5.85%.
With `COc1ccc(C(=O)NCc2ncccc2C)cc1OC1CCN(C(C)=O)CC1`, the cell number change was -18.3%. Moreover, under setting [2], the AC50 was 0.58 µM [falling, single point].
With `O=C1C2C(C(=O)N1c1ccccc1)N1CCCN1C2c1ccccc1` (stereo not given), the concentration at half-maximal activity (AC50) under setting [1] was 0.731 µM [falling, full curve] and the concentration at half-maximal activity (AC50) under setting [2] was 0.13 µM [falling, full curve, poor fit].
For the compound `CC(OC(=O)c1ncc(Cl)c(Cl)c1Cl)C(=O)NC1(C#N)CCCCC1` (stereo not given), the AC50 under setting [1] was 0.00731 µM [rising, full curve, poor fit].
Take `O=C(COc1ccc(F)cc1)NC1CC1`: the cell number change amounted to 8.96%. Under setting [2], the AC50 was 0.461 µM [falling, full curve].
Regarding `COc1ccc(/C=N/NC(=O)CNC(=O)c2ccncc2)cc1`, the cell number change stood at 19.4%. Moreover, the AC50 under setting [1] is 6.51 µM [rising, single point].
As for `O=C(NC1CCCCCC1)C1CCN(S(=O)(=O)c2c(Cl)cccc2Cl)CC1`, the cell number change was -23.9%. The AC50 under setting [2] was 20.6 µM [falling, single point].
Consider `NC(=O)c1ccccc1NC(=O)CCCc1ccccc1`, for which the cell number change was 19.3%.
Still for that read-out and setting: under `Clc1cccc(Cl)c1CSc1nnc(CN2CCOCC2)n1-c1ccccc1` stands -12%.
Turning to `CC(Oc1ccc(Cl)cc1Cl)C(=O)NC(=S)N1CCc2ccccc21` (stereo not given), the cell number change was -9.5%. In addition, the AC50 under setting [2] is 20.6 µM [falling, single point].
`O=C(COc1ccccc1Cl)Nc1cccc(S(=O)(=O)NC2=NCCCCC2)c1`: the cell number change was 55.5%. Further, the AC50 under setting [1] is 0.259 µM [rising, partial curve].
Consider `CC1CCC(C(=O)NC(C(=O)NCc2ccccn2)C(C)C)CC1` (stereo not given), for which the cell number change is -22.3%. The AC50 under setting [1] was 2.59 µM [falling, single point]. The concentration at half-maximal activity (AC50) under setting [2] is 1.16 µM [falling, full curve].
In the case of `CN(C(=O)c1ccncc1)c1nnc(-c2ccccn2)s1`, the cell number change was 36.1%. Besides, under setting [1], the AC50 is 9.2 µM [rising, partial curve].
In the case of `N#C/C(=N\Nc1cc(Cl)cc(Cl)c1)c1nnc2n1CCCCC2`, the cell number change was -3.38%. In addition, the concentration at half-maximal activity (AC50) under setting [2] was 20.6 µM [rising, single point].
Consider `Cc1ccc(Nc2nc(N)nc(CSc3nc(C)cc(C)n3)n2)cc1`, for which the AC50 under setting [1] is 0.517 µM [rising, full curve].
For the compound `CCOC(=O)N/N=C/c1c[nH]c2ccccc12`, the cell number change is -6.38%.
`CC(NC(=O)c1cccc(S(=O)(=O)N2CCN(C)CC2)c1)c1ccc(Cl)cc1Cl` (stereo not given): the cell number change amounted to 118%. Besides, the half-maximal activity concentration (AC50) under setting [1] is 16.4 µM [rising, partial curve].
Take `CCN(CC)c1ccc(N=C2C(=O)Nc3ccccc32)cc1`: the cell number change was -58.7%. For the same compound, the AC50 under setting [1] is 29.1 µM [falling, single point]. The half-maximal activity concentration (AC50) under setting [2] was 16.4 µM [falling, partial curve].
For `CCNC(=O)c1cc(Cl)ccc1OC`, the cell number change is 63.6%. Further, the AC50 under setting [1] is 29.1 µM [rising, single point].
Take `CCOc1ccccc1C(=O)NCC(=O)N(C)Cc1ccccc1C`: the cell number change was determined as 2.78%. Also, the AC50 under setting [2] is 0.58 µM [rising, single point].
Consider `O=c1[nH]c2ccccc2cc1-c1noc(-c2cccnc2)n1`, for which the cell number change is 22.2%. Moreover, the AC50 under setting [1] was 0.58 µM [rising, full curve]. Under setting [2], the AC50 is 0.82 µM [rising, full curve].
`C=CCn1c(CCn2c3ccccc3c3ccccc32)n[nH]c1=S`: the cell number change is 24.6%. Moreover, under setting [2], the concentration at half-maximal activity (AC50) is 1.84 µM [rising, partial curve, poor fit].
Turning to `COCCCN1C(=O)C(=O)/C(=C(/O)c2ccc3c(c2)OCCO3)C1c1ccc(C(=O)OC)cc1` (stereo not given), the cell number change was 10.5%. Also, the half-maximal activity concentration (AC50) under setting [2] is 7.31 µM [rising, partial curve, poor fit].
For `Cc1cc(Br)ccc1N=C1NC(=O)CS1`, the cell number change was -22.8%.
For the compound `O=C1c2ccsc2SCCN1Cc1ccc(F)cc1`, the cell number change is 19.1%. Besides, the concentration at half-maximal activity (AC50) under setting [2] was 29.1 µM [rising, single point].
As for `Cn1cc(Br)c(C(=O)NNC(=O)c2ccc(Br)cc2)n1`, the cell number change was 13.8%. Besides, under setting [2], the AC50 is 9.2 µM [rising, partial curve, poor fit].
For the compound `COc1ccc(S(=O)(=O)N2CCCC(C(=O)NCc3ccccn3)C2)cc1` (stereo not given), the cell number change is -7.62%. Besides, the AC50 under setting [2] was 0.206 µM [falling, partial curve, poor fit].
Turning to `Cc1cc(C(=O)Nc2nnc(C3CCCCC3)s2)no1`, the cell number change was 9.57%. Under setting [2], the AC50 was 14.6 µM [rising, single point].
For `Cc1cccc(C)c1NC(=S)N1CCCN(C)CC1`, the cell number change worked out at 27.1%. Besides, the AC50 under setting [2] is 29.1 µM [rising, single point].
Take `CCOCCCNC(=O)C1CCN(C(=O)Nc2ccc(Cl)cc2)CC1`: the cell number change is -2.57%. Also, the AC50 under setting [2] is 9.2 µM [falling, partial curve, poor fit].
For the compound `CC(Oc1ccccc1Cl)C(=O)Nc1ccccc1C(=O)N1CCOCC1` (stereo not given), the cell number change was -12.9%. Further, under setting [1], the AC50 is 0.0731 µM [rising, full curve, poor fit]. The concentration at half-maximal activity (AC50) under setting [2] is 29.1 µM [falling, single point].
With `Cc1csc(NC(=O)c2cnccn2)n1`, the cell number change was -18.1%. Besides, the AC50 under setting [2] was 0.116 µM [rising, full curve, poor fit].
On to `Cc1ccc(N(Cc2ccccc2)C(=O)c2cc(S(=O)(=O)N3CCOCC3)ccc2C)cc1`, for which the cell number change amounted to 23.9%. Besides, the AC50 under setting [2] was 18.4 µM [rising, partial curve].
Regarding `CC1CCN(C(=O)COC(=O)c2n[nH]c3ccccc23)CC1`, the cell number change was determined as 20.9%. For the same compound, the AC50 under setting [2] is 11.6 µM [rising, single point].
As to `O=C(CSc1nnc(COc2ccc(F)cc2)o1)N1c2ccccc2CCc2ccccc21`, the cell number change was -26%. In addition, under setting [2], the AC50 is 11.6 µM [falling, partial curve, poor fit].
`Cc1ccc(-c2nc3c(c(=O)[nH]c(=O)n3CC(C)C)n2CC(C)C)cc1[N+](=O)[O-]`: under setting [2], the half-maximal activity concentration (AC50) was 0.58 µM [rising, single point].
With `Cc1nc(N2CCOCC2)nc(OC(C)C)c1[N+](=O)[O-]`, the cell number change turned out to be 17.4%. Moreover, under setting [2], the half-maximal activity concentration (AC50) is 20.6 µM [rising, single point].
As to `CCOc1ccc2nc(NCCCNS(=O)(=O)c3ccccc3)c(C#N)cc2c1`, the cell number change was found to be 2.01%.
With `COCCNC(=O)CCn1nc(-c2ccc(C)cc2)ccc1=O`, the cell number change was determined as 25.7%. Besides, under setting [2], the concentration at half-maximal activity (AC50) was 0.0731 µM [rising, full curve, poor fit].
Turning to `COc1ccc(OCCOC(=O)c2cc(S(=O)(=O)N3CCOCC3)c(Cl)cc2Cl)cc1`, the AC50 under setting [2] was 6.51 µM [falling, single point].
As for `COc1ccccc1CCNC(=O)CCn1c(=O)oc2ccccc21`, the cell number change was 40%.
As for `Cc1c(Cl)cccc1-n1c(SCC(=O)N(C)Cc2ccccc2)nnc1-c1ccncc1`, the cell number change was 30.8%. Besides, under setting [1], the half-maximal activity concentration (AC50) is 0.58 µM [rising, full curve]. For the same compound, under setting [2], the concentration at half-maximal activity (AC50) was 2.91 µM [rising, partial curve].

For the origin of these results see PubChem BioAssay AID2685 (National Center for Advancing Translational Sciences (NCATS), 2010).
